Results published in the supplement of paper PMC10849652.
This is one part of the list.

Chains of the proteins cited; added tags and fusions are not shown. Lines headed by an entry give the natural chain unless they say otherwise; changes in a name come on top.
UniProt Q9NZR1: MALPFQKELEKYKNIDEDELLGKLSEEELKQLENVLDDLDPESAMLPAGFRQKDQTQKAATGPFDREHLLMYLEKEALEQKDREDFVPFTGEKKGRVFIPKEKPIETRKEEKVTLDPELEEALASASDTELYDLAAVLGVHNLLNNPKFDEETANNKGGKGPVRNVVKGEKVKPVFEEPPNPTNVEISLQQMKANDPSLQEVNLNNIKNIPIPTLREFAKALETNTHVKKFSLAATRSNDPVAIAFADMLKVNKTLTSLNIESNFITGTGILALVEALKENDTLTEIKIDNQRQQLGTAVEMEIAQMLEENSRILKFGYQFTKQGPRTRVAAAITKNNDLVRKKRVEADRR
UniProt Q15025: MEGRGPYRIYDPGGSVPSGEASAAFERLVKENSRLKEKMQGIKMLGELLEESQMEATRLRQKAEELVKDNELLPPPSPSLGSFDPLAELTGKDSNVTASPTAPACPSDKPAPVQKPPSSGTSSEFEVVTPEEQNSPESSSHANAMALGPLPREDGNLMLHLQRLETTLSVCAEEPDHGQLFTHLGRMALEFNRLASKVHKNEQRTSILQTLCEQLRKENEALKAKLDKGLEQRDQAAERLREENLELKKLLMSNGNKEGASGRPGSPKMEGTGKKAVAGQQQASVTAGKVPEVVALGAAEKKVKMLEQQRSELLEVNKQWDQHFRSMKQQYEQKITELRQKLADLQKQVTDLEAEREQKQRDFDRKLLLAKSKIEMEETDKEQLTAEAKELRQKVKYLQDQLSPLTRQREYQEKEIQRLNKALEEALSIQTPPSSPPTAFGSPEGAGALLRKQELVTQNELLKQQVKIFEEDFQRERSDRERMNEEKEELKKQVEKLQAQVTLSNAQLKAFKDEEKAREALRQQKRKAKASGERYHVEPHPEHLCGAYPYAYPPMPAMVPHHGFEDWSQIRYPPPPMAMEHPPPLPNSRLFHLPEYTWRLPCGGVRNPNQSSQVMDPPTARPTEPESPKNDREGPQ
UniProt P42167: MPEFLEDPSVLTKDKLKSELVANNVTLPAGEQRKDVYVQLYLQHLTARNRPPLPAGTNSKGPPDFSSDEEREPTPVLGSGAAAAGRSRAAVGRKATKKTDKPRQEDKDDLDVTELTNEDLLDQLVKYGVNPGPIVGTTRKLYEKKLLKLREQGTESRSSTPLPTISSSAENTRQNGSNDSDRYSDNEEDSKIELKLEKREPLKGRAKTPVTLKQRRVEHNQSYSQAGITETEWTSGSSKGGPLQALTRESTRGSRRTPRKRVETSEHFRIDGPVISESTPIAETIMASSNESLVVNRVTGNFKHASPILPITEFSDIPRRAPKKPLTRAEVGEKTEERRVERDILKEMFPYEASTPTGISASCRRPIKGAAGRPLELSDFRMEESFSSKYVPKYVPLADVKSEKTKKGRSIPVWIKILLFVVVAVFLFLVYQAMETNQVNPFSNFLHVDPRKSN
UniProt Q8N4H5: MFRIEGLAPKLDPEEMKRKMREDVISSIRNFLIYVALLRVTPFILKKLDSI
UniProt P13693: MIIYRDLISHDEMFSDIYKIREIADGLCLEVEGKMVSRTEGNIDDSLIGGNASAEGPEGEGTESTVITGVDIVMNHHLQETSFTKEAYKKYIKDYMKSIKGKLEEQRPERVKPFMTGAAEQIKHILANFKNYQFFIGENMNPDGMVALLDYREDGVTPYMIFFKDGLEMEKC
UniProt Q02880: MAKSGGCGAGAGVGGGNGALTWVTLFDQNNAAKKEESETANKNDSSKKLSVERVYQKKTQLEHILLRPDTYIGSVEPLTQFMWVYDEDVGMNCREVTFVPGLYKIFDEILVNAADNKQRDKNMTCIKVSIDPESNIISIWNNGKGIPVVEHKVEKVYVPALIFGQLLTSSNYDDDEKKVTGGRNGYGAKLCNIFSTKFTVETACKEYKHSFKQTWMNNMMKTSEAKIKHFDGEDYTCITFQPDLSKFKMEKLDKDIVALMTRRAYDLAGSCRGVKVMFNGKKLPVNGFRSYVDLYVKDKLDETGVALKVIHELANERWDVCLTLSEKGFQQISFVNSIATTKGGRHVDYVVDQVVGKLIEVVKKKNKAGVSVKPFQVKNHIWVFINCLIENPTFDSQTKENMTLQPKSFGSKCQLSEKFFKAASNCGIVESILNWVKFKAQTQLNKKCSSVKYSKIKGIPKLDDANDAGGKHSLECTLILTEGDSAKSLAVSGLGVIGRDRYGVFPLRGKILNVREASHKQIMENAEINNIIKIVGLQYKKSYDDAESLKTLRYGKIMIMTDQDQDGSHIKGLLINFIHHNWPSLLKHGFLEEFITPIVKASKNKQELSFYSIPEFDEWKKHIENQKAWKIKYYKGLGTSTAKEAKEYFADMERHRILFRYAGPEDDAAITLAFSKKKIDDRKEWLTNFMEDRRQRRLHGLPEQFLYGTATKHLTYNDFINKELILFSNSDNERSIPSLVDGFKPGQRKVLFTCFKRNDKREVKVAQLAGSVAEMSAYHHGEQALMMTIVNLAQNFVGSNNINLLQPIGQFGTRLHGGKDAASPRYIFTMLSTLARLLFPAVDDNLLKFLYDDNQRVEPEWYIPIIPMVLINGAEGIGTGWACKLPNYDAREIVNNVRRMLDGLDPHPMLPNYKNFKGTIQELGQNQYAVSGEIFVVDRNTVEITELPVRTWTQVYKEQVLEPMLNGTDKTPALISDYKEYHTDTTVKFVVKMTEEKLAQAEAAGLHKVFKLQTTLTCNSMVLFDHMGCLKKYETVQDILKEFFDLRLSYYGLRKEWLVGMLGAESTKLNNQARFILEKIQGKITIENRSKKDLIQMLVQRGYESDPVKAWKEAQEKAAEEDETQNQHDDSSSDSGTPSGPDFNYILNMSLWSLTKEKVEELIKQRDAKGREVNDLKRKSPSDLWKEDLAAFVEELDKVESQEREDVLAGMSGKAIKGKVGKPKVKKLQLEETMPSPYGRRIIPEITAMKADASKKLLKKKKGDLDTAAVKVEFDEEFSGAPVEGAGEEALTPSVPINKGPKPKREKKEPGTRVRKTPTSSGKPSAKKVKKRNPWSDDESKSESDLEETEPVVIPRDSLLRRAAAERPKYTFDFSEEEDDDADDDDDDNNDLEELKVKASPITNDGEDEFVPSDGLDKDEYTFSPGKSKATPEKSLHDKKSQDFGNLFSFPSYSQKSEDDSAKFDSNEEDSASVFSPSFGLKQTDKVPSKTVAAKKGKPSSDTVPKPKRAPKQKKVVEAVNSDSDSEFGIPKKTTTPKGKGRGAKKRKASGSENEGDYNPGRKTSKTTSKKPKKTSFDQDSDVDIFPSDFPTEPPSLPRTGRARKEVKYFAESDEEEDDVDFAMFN
UniProt Q9NV96: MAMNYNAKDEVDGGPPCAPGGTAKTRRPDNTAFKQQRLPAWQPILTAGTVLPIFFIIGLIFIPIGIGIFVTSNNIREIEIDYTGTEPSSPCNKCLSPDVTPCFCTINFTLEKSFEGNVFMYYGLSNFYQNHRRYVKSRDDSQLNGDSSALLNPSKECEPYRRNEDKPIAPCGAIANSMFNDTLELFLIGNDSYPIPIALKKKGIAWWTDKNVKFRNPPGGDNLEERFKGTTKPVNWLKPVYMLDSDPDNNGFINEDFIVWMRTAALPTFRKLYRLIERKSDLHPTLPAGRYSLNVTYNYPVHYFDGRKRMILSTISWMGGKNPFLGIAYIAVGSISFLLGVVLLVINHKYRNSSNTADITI
UniProt O14656: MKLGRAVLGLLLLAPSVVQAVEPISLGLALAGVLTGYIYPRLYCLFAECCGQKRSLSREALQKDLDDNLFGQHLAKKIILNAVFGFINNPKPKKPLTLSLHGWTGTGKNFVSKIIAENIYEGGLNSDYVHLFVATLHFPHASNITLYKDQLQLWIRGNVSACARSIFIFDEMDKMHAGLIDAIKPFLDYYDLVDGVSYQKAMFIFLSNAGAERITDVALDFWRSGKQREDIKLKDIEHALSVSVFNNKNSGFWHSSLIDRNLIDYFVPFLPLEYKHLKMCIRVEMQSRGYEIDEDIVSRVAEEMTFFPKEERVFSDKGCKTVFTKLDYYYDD
UniProt P62995: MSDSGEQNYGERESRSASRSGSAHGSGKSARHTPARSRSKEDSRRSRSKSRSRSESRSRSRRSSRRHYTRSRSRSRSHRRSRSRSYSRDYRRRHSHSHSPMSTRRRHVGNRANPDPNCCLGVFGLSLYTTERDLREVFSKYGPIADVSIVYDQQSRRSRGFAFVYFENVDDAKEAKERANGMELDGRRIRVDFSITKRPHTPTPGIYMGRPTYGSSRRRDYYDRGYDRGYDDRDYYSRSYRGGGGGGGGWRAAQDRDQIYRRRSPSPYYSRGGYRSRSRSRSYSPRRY
UniProt P21580: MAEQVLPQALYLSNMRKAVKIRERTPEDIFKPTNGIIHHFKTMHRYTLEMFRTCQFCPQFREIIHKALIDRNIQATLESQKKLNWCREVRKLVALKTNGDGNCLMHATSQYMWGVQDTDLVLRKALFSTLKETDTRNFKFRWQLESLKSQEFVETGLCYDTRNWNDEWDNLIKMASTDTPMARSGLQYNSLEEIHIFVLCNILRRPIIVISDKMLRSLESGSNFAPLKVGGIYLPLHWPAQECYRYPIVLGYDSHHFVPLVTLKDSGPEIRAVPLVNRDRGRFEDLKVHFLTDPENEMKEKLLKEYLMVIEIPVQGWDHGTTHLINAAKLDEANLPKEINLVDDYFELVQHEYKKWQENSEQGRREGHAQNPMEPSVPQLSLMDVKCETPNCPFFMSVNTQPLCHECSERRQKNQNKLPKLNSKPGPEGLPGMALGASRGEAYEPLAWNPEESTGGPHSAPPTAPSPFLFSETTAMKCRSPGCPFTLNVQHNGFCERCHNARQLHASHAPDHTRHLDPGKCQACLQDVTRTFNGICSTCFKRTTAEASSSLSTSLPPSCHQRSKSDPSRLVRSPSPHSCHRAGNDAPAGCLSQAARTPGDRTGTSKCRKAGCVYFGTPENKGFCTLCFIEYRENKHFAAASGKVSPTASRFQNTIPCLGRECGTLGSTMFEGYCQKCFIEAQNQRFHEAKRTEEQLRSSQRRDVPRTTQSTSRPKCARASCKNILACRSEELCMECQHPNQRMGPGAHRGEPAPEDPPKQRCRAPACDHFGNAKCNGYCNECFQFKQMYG
UniProt Q15785: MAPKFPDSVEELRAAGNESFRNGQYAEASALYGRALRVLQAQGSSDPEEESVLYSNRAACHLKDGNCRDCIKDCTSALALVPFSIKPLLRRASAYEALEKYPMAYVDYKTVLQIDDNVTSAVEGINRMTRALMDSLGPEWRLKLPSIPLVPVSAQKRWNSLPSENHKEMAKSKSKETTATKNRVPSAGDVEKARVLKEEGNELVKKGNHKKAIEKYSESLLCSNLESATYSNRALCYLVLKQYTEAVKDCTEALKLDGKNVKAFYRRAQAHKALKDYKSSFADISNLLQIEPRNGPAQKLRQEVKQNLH
UniProt Q15388, whole entry, looked up: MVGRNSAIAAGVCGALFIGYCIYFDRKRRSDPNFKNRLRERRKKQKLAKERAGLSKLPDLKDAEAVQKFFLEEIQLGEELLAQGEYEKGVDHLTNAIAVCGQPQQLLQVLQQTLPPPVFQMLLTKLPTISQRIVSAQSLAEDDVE
UniProt P06753, whole entry, looked up: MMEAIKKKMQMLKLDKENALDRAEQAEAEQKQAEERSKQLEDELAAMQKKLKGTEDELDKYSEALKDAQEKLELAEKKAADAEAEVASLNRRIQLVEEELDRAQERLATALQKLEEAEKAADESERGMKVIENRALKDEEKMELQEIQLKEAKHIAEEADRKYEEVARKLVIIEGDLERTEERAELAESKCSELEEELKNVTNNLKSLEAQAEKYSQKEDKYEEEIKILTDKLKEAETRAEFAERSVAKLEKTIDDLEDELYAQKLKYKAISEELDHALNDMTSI
UniProt Q5SWH9: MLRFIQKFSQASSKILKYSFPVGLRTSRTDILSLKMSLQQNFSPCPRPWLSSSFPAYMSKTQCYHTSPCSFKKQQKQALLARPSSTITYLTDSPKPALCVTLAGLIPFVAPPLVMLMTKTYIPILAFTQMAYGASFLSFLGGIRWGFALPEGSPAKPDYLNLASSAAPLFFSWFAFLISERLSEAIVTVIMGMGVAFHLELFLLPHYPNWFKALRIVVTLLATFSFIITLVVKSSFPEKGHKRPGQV

Experiments:
Experiment in all cases: log2 fold change, soluble protein after heating vs DMSO (PISA); higher = thermal stabilisation; K562 lysate, 10 uM; active = over 0.2 and 3.5 SD of the protein, either way, in both replicates (recomputed)
lapatinib = compound: CS(=O)(=O)CCNCc1ccc(-c2ccc3ncnc(Nc4ccc(OCc5cccc(F)c5)c(Cl)c4)c3c2)o1 [lapatinib]
How it was run: (§1)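 K562 pellets were dounce-homogenised in PBS pH 7.4 with 1 mM MgCl2, and the crude extract at 1 mg/mL protein was treated with 10 μM compound for 30 min. Aliquots were heated for 3 min across 48°C-58°C, pooled, and brought to 0.5% NP-40 at 4°C; soluble protein was the supernatant after 21,000xg for 90 min. Soluble protein was quantified by TMTpro 16plex LC-MS/MS with channel sums equalised, and reported as log2 fold change in thermal stability against DMSO controls, with values from duplicates.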

pictilisib = compound: CS(=O)(=O)N1CCN(Cc2cc3nc(-c4cccc5[nH]ncc45)nc(N4CCOCC4)c3s2)CC1 [pictilisib]
How it was run: as §1

crizotinib = compound: C[C@@H](Oc1cc(-c2cnn(C3CCNCC3)c2)cnc1N)c1c(Cl)ccc(F)c1Cl [crizotinib]
How it was run: as §1

[1] = compound: C[C@H](C1=CC=C(C=C1)C(=O)NC2=C3C=CNC3=NC=C2)N
How it was run: as §1

duvelisib = compound: C[C@H](Nc1ncnc2nc[nH]c12)c1cc2cccc(Cl)c2c(=O)n1-c1ccccc1 [duvelisib]
How it was run: as §1

gandotinib = compound: Cc1cc(Nc2cc(CN3CCOCC3)c3nc(C)c(Cc4ccc(Cl)cc4F)n3n2)n[nH]1 [gandotinib]
How it was run: as §1

tozasertib = compound: Cc1cc(Nc2cc(N3CCN(C)CC3)nc(Sc3ccc(NC(=O)C4CC4)cc3)n2)n[nH]1 [tozasertib]
How it was run: as §1

doramapimod = compound: Cc1ccc(-n2nc(C(C)(C)C)cc2NC(=O)Nc2ccc(OCCN3CCOCC3)c3ccccc23)cc1 [doramapimod]
How it was run: as §1

bafetinib = compound: Cc1ccc(NC(=O)c2ccc(CN3CC[C@H](N(C)C)C3)c(C(F)(F)F)c2)cc1Nc1nccc(-c2cncnc2)n1 [bafetinib]
How it was run: as §1

[2] = compound: Cc1cccc(CC(=O)N2CCc3c2ccc(-c2cn(C)c4ncnc(N)c24)c3F)n1
How it was run: as §1

nilotinib = compound: Cc1cn(-c2cc(NC(=O)c3ccc(C)c(Nc4nccc(-c5cccnc5)n4)c3)cc(C(F)(F)F)c2)cn1 [nilotinib]
How it was run: as §1

[3] = compound: Cc1nc(Nc2n[nH]c3c2CN(C(=O)N[C@H](CN(C)C)c2ccccc2)C3(C)C)c2sccc2n1
How it was run: as §1

dasatinib = compound: Cc1nc(Nc2ncc(C(=O)Nc3c(C)cccc3Cl)s2)cc(N2CCN(CCO)CC2)n1 [dasatinib]
How it was run: as §1

[4] = compound: Cc1ncc(-c2ccnc(Nc3ccc(S(C)(=O)=O)cc3)n2)n1C(C)C
How it was run: as §1

[5] = compound: Cn1cc(-c2ccc3c(c2)CCN3C(=O)Cc2cccc(C(F)(F)F)c2)c2c(N)ncnc21
How it was run: as §1

quisinostat = compound: Cn1cc(CNCC2CCN(c3ncc(C(=O)NO)cn3)CC2)c2ccccc21 [quisinostat]
How it was run: as §1

tipifarnib = compound: Cn1cncc1[C@@](N)(c1ccc(Cl)cc1)c1ccc2c(c1)c(-c1cccc(Cl)c1)cc(=O)n2C [tipifarnib]
How it was run: as §1

[6] = compound: NC(=O)Nc1cc(-c2cccc(F)c2)sc1C(=O)N[C@H]1CCCNC1
How it was run: as §1

[7] = compound: NC(=O)c1cnc(N[C@@H]2CCCC[C@@H]2N)nc1Nc1cccc(-n2nccn2)c1
How it was run: as §1

[8] = compound: NC1(c2ccc(-c3nc4ccn5c(=O)[nH]nc5c4cc3-c3ccccc3)cc2)CCC1
How it was run: as §1

Measured: log2 fold change

TMOD2 (UniProt Q9NZR1)
inactive: lapatinib 0.009 | pictilisib 0.019 | crizotinib -0.027 | [1] -0.04 | duvelisib -0.007 | gandotinib 0.056 | tozasertib 0.022 | doramapimod 0.006 | bafetinib 0.018 | [2] 0.131 | nilotinib -0.019 | [3] 0.022 | dasatinib -0.043 | [4] 0.035 | [5] 0.013 | quisinostat -0.005 | tipifarnib -0.048 | [6] -0.003 | [7] 0 | [8] 0.019

TNIP1 (UniProt Q15025)
inactive: lapatinib -0.117 | pictilisib -0.008 | crizotinib 0.077 | [1] -0.065 | duvelisib -0.001 | gandotinib 0.008 | tozasertib -0.014 | doramapimod 0.016 | bafetinib -0.009 | [2] 0.071 | nilotinib -0.002 | [3] 0.036 | dasatinib -0.011 | [4] -0.008 | [5] -0.034 | quisinostat 0.012 | tipifarnib 0.035 | [6] 0.021 | [7] 0.047 | [8] -0.014

TMPO (UniProt P42167)
inactive: lapatinib 0.053 | pictilisib 0.029 | crizotinib 0.059 | [1] 0.047 | duvelisib -0.039 | gandotinib -0.033 | tozasertib 0.035 | doramapimod -0.037 | bafetinib 0.005 | [2] -0.04 | nilotinib -0.033 | [3] -0.003 | dasatinib 0.008 | [4] -0.042 | [5] -0.016 | quisinostat 0.061 | tipifarnib -0.034 | [6] 0.009 | [7] -0.011 | [8] 0.007

TPR (UniProt P12270)
inactive: lapatinib -0.008 | pictilisib 0.003 | crizotinib 0.028 | [1] 0.056 | duvelisib -0.004 | gandotinib -0.009 | tozasertib -0.012 | doramapimod -0.013 | bafetinib 0.005 | [2] -0.05 | nilotinib -0.009 | [3] 0.001 | dasatinib 0.019 | [4] 0.004 | [5] -0.004 | quisinostat 0.013 | tipifarnib 0.011 | [6] -0.018 | [7] -0.007 | [8] 0.006

TOMM5 (UniProt Q8N4H5)
inactive: lapatinib -0.044 | pictilisib 0.022 | crizotinib -0.027 | [1] 0.412 | duvelisib 0.014 | gandotinib -0.149 | tozasertib -0.172 | doramapimod 0.027 | bafetinib 0.01 | [2] -0.18 | nilotinib 0.045 | [3] 0.014 | dasatinib 0.095 | [4] 0.409 | [5] 0.025 | quisinostat 0.034 | tipifarnib -0.046 | [6] -0.016 | [7] 0.022 | [8] 0.011

TPT1 (UniProt P13693)
inactive: lapatinib 0.029 | pictilisib 0.009 | crizotinib 0.022 | [1] 0.064 | duvelisib 0.005 | gandotinib -0.001 | tozasertib -0.018 | doramapimod -0.019 | bafetinib 0.033 | [2] -0.042 | nilotinib 0.01 | [3] -0.002 | dasatinib 0 | [4] 0.014 | [5] -0.005 | quisinostat 0.002 | tipifarnib -0.011 | [6] 0.002 | [7] -0.024 | [8] -0.011

TOE1 (UniProt Q96GM8)
inactive: lapatinib 0.002 | pictilisib -0.057 | crizotinib 0.003 | [1] -0.023 | duvelisib 0.052 | gandotinib -0.016 | tozasertib 0.059 | doramapimod -0.04 | bafetinib 0.047 | [2] 0.059 | nilotinib -0.039 | [3] -0.012 | dasatinib 0.016 | [4] 0.04 | [5] 0.015 | quisinostat -0.036 | tipifarnib 0.006 | [6] 0.023 | [7] -0.013 | [8] -0.01

TOP2B isoform 2 (UniProt Q02880)
inactive: lapatinib -0.02 | pictilisib -0.023 | crizotinib -0.027 | [1] 0.177 | duvelisib -0.027 | gandotinib -0.101 | tozasertib 0 | doramapimod 0.005 | bafetinib -0.025 | [2] -0.071 | nilotinib 0.015 | [3] -0.016 | dasatinib 0.044 | [4] 0.016 | [5] 0 | quisinostat -0.024 | tipifarnib 0.018 | [6] 0.044 | [7] -0.007 | [8] -0.013

TMEM30A (UniProt Q9NV96)
inactive: lapatinib 0 | pictilisib 0.029 | crizotinib 0.005 | [1] -0.013 | duvelisib -0.203 | gandotinib 0.013 | tozasertib 0.008 | doramapimod 0.022 | bafetinib 0.118 | [2] -0.013 | nilotinib 0.002 | [3] 0.02 | dasatinib 0.041 | [4] -0.056 | [5] 0.159 | quisinostat 0 | tipifarnib -0.12 | [6] -0.038 | [7] 0.02 | [8] 0.022

TOR1A (UniProt O14656)
inactive: lapatinib -0.01 | pictilisib -0.032 | crizotinib 0.011 | [1] 0.013 | duvelisib -0.011 | gandotinib 0.02 | tozasertib -0.007 | doramapimod -0.014 | bafetinib -0.029 | [2] 0.013 | nilotinib 0.034 | [3] -0.055 | dasatinib 0.017 | [4] -0.03 | [5] -0.01 | quisinostat 0.006 | tipifarnib -0.026 | [6] 0.009 | [7] -0.007 | [8] 0.003

TRA2B (UniProt P62995)
inactive: lapatinib -0.013 | pictilisib 0.01 | crizotinib -0.098 | [1] 0.049 | duvelisib 0.209 | gandotinib -0.005 | tozasertib 0.006 | doramapimod 0.063 | bafetinib -0.049 | [2] -0.009 | nilotinib -0.04 | [3] -0.026 | dasatinib 0.027 | [4] 0.027 | [5] -0.052 | quisinostat -0.149 | tipifarnib -0.024 | [6] 0.007 | [7] 0.012 | [8] -0.001

TNFAIP3 (UniProt P21580)
inactive: lapatinib -0.032 | pictilisib 0.052 | crizotinib -0.013 | [1] 0.032 | duvelisib 0.038 | gandotinib -0.075 | tozasertib 0.744 | doramapimod 0.084 | bafetinib -0.02 | [2] -0.023 | nilotinib 0.038 | [3] -0.01 | dasatinib -0.002 | [4] -0.04 | [5] 0.033 | quisinostat 0.008 | tipifarnib -0.068 | [6] 0.025 | [7] 0.01 | [8] 0.003

TOMM34 (UniProt Q15785)
inactive: lapatinib 0.012 | pictilisib -0.019 | crizotinib -0.05 | [1] 0.007 | duvelisib 0.007 | gandotinib -0.054 | tozasertib 0.009 | doramapimod 0.037 | bafetinib -0.022 | [2] 0.005 | nilotinib 0.027 | [3] -0.001 | dasatinib -0.033 | [4] -0.003 | [5] -0.021 | quisinostat -0.06 | tipifarnib -0.01 | [6] 0.009 | [7] -0.023 | [8] 0.011

TOMM20 (UniProt Q15388)
inactive: lapatinib 0.031 | pictilisib 0.015 | crizotinib -0.131 | [1] 0.036 | duvelisib 0.028 | gandotinib 0.066 | tozasertib 0.048 | doramapimod -0.035 | bafetinib -0.046 | [2] 0 | nilotinib -0.06 | [3] -0.073 | dasatinib 0.066 | [4] 0.044 | [5] 0.007 | quisinostat -0.108 | tipifarnib 0.074 | [6] 0.062 | [7] 0.016 | [8] -0.048

TPM3 (UniProt P06753)
inactive: lapatinib 0.014 | pictilisib 0.005 | crizotinib 0.022 | [1] 0.123 | duvelisib 0.009 | gandotinib -0.039 | tozasertib -0.003 | doramapimod -0.022 | bafetinib 0.052 | [2] -0.088 | nilotinib 0.014 | [3] -0.033 | dasatinib 0.023 | [4] 0.028 | [5] -0.012 | quisinostat 0.046 | tipifarnib 0.033 | [6] -0.042 | [7] -0.02 | [8] 0.034

TMEM69 (UniProt Q5SWH9)
inactive: lapatinib 0.02 | pictilisib -0.134 | crizotinib 0.17 | [1] -0.172 | duvelisib 0.082 | gandotinib 0.081 | tozasertib 0.084 | doramapimod -0.121 | bafetinib -0.012 | [2] 0.145 | nilotinib -0.011 | [3] 0.043 | dasatinib 0.008 | [4] 0.017 | [5] -0.126 | quisinostat -0.125 | tipifarnib -0.103 | [6] 0.103 | [7] -0.096 | [8] -0.025
